According to the supplement of paper PMC10849652:
Some of the results follow.

Chains of the proteins cited; added tags and fusions are not shown. Lines headed by an entry give the natural chain unless they say otherwise; changes in a name come on top.
UniProt P49902: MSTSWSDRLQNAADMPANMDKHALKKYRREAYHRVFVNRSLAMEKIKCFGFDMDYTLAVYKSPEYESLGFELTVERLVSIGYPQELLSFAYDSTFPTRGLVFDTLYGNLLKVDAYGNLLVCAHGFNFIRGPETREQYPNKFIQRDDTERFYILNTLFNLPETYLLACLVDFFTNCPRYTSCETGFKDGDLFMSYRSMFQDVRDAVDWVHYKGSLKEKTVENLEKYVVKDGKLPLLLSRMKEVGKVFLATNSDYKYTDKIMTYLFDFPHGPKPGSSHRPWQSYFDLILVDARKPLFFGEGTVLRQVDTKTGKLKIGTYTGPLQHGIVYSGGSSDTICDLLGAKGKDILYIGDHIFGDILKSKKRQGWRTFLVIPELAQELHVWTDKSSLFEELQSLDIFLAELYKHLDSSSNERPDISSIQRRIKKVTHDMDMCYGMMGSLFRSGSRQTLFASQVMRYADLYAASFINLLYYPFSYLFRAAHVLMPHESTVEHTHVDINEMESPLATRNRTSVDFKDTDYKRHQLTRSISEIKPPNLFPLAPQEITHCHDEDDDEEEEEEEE
UniProt O43929: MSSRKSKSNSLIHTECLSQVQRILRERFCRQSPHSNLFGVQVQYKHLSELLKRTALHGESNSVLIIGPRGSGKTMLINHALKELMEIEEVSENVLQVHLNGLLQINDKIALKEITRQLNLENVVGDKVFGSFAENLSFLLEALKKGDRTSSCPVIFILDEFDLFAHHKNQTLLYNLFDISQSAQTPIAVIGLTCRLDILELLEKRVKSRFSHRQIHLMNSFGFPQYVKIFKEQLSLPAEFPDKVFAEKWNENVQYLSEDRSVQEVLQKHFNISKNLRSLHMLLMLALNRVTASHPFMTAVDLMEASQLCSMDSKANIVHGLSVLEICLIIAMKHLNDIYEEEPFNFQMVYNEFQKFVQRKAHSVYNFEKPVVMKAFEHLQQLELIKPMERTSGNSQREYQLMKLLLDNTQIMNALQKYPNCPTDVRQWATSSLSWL
UniProt P11940, whole entry, looked up: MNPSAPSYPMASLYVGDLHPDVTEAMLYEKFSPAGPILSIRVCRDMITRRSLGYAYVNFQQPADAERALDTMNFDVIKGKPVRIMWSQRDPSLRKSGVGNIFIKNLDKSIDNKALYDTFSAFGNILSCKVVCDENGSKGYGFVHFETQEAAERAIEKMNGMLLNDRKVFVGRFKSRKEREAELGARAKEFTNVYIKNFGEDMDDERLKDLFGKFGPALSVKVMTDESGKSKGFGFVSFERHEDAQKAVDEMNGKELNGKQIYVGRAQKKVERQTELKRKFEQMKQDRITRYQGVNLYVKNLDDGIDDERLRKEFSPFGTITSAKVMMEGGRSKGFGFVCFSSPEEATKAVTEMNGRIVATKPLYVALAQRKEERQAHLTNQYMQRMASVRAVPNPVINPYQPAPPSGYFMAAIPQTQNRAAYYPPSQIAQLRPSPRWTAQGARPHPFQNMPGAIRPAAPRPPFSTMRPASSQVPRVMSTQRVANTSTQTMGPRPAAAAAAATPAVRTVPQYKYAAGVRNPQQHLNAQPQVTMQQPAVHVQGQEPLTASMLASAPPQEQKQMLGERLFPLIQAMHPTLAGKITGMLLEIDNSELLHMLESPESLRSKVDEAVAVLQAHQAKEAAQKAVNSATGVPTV
UniProt P13674: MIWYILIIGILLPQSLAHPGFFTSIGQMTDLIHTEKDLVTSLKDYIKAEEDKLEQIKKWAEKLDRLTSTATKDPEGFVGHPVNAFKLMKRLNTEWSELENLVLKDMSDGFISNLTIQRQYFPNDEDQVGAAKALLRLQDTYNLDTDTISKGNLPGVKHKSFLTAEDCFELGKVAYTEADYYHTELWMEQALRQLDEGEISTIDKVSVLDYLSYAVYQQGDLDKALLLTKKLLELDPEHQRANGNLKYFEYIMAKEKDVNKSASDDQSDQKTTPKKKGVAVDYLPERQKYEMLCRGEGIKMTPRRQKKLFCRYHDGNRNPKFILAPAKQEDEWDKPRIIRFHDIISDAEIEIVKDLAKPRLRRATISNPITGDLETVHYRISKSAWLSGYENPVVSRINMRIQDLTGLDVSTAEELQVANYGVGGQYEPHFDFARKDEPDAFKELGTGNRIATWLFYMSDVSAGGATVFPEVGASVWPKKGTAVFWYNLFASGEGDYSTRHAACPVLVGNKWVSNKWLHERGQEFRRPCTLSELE
UniProt Q99567: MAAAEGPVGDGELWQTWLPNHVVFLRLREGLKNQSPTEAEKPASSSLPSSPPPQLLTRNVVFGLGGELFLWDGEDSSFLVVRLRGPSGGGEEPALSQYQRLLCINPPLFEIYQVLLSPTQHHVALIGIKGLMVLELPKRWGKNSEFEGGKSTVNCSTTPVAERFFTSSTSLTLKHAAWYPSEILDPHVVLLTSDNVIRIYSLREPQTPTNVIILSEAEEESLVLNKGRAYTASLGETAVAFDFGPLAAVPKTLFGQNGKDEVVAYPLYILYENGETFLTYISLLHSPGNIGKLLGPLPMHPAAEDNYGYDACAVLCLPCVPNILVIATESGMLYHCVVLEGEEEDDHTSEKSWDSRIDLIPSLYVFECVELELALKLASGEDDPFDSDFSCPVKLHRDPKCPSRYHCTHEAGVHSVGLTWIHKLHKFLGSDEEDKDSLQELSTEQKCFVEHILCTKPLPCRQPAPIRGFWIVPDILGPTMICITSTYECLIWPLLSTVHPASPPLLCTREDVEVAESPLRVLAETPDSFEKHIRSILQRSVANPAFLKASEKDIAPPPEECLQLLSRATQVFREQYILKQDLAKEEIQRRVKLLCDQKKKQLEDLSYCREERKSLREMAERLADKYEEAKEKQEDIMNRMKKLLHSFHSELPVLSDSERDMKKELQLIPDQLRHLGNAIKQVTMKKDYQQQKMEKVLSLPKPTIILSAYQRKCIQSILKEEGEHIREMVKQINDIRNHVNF
UniProt Q92882: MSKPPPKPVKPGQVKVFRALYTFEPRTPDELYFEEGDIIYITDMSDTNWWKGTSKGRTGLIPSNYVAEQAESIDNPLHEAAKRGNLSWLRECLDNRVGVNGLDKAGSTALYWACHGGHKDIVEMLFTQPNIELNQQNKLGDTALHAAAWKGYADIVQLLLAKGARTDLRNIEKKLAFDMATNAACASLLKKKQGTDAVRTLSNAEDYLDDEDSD
UniProt Q9NZJ9: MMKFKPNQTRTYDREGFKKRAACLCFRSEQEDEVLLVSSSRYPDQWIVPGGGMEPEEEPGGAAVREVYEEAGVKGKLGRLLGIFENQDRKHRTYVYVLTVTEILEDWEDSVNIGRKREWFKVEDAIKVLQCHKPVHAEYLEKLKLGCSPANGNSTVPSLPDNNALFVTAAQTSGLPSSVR
UniProt Q9BXS6: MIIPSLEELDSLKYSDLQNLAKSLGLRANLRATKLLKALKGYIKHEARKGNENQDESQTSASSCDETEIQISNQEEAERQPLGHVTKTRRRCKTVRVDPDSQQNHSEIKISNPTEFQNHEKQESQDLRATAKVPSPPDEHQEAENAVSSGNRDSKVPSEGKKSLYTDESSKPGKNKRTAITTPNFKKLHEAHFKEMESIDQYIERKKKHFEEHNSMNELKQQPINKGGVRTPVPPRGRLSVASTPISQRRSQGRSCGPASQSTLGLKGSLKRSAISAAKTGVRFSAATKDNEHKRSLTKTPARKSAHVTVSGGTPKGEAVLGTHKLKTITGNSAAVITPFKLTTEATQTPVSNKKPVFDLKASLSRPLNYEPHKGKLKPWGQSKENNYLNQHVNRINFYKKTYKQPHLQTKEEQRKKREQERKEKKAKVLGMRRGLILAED
UniProt O43482, whole entry, looked up: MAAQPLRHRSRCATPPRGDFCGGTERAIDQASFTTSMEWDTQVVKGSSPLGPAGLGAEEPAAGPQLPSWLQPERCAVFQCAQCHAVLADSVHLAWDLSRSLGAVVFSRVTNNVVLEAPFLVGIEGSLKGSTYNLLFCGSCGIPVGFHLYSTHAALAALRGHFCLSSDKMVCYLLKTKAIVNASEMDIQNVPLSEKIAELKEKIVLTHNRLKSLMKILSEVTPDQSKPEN
UniProt Q9Y5A7: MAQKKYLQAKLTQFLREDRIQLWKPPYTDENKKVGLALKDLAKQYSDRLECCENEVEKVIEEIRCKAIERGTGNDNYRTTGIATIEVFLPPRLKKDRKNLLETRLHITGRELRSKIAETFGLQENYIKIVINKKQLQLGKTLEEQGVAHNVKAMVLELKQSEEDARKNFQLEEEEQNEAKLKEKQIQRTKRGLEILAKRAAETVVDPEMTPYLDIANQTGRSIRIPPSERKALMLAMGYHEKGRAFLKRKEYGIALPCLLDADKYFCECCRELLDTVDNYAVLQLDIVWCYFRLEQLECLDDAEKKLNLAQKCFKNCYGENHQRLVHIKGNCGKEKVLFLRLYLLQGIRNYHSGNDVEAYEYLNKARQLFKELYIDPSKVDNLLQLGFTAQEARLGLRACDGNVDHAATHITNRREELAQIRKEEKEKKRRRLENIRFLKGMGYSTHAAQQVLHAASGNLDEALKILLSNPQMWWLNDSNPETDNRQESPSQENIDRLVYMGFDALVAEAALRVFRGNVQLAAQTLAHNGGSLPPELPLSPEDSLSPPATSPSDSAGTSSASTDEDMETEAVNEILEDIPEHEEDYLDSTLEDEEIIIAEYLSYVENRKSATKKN
UniProt Q96E22: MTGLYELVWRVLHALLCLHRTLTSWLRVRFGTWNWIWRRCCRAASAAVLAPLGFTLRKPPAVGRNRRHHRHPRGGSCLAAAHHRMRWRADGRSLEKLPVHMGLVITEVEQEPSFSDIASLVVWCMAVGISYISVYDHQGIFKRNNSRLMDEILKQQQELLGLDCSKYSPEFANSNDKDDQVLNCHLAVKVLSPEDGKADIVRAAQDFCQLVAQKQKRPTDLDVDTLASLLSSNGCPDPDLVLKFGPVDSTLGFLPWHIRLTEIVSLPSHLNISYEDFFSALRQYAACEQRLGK
UniProt Q02218: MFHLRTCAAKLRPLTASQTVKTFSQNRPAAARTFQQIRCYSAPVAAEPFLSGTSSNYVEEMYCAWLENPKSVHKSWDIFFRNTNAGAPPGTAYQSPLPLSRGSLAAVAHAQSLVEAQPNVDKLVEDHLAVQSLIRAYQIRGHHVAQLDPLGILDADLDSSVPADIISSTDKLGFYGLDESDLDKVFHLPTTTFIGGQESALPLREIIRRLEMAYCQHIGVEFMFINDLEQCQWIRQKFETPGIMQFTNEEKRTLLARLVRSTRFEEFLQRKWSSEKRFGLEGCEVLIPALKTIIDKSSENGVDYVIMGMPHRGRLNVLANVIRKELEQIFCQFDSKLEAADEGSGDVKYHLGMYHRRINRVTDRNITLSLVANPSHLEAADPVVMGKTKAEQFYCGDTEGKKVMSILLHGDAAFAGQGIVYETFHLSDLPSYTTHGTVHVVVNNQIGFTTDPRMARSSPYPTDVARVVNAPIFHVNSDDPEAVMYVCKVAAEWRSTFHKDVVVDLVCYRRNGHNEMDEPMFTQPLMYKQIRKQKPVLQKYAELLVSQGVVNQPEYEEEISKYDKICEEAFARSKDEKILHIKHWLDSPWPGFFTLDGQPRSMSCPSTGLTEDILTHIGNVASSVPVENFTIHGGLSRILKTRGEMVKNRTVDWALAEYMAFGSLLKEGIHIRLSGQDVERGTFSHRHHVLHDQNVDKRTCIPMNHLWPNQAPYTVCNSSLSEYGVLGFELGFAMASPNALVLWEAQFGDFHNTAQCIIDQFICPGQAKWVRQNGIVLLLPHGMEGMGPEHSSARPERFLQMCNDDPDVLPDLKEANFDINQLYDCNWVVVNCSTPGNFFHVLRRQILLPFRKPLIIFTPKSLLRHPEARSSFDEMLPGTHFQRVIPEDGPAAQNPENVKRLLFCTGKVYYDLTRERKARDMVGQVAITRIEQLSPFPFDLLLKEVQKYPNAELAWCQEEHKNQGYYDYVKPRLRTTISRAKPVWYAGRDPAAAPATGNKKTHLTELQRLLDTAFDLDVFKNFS
UniProt Q9H857: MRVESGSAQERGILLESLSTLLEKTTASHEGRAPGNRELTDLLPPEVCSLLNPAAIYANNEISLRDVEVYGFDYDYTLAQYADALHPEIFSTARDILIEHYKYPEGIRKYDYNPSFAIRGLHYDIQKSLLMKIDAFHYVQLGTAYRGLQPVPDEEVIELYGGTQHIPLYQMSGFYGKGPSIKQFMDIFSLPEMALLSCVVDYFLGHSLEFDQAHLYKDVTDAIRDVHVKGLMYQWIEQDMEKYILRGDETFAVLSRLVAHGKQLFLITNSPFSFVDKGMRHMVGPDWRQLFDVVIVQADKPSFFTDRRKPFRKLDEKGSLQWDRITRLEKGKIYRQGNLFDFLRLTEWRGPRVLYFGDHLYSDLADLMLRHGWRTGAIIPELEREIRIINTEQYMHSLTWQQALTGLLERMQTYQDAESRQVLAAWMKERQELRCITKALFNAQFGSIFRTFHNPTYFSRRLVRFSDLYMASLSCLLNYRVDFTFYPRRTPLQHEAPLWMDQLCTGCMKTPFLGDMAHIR
UniProt P61970, whole entry, looked up: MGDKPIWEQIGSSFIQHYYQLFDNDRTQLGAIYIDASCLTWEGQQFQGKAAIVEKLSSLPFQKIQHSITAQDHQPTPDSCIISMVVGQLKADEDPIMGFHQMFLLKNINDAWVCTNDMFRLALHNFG

Compound: COc1cccc2cc(-c3nc([C@H]4CC[C@H](C(=O)O)CC4)n4ncnc(N)c34)[nH]c12
Test: log2 fold change, soluble protein after heating vs DMSO (PISA); higher = thermal stabilisation; K562 cells, 10 uM, 30 min; active = over 0.2 and 3.5 SD of the protein, either way, in both replicates (recomputed)
Summary of the method: (§1)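 Soluble protein was defined as the supernatant after 21,000xg for 90 min. It came from K562 cells at 2×10^6 cells/mL given 10 μM compound for 30 min, heated in aliquots for 3 min across 48°C-58°C, pooled, and extracted in PBS with 0.5% NP-40 at 4°C, and was quantified by TMTpro 16plex LC-MS/MS with equalised channel sums. Thermal stability against control samples, from duplicates, is reported as log2 fold change.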

Target	log2 fold change
NT5C2 (UniProt P49902)	inactive: 0.039
ORC4 (UniProt O43929)	inactive: 0.029
NUDT16L1 (UniProt Q9BRJ7)	inactive: -0.003
OS9 (UniProt Q13438)	inactive: -0.001
NUDT19 (UniProt A8MXV4)	inactive: 0.029
PABPC1 (UniProt P11940)	inactive: -0.105
NT5DC3 (UniProt Q86UY8)	inactive: 0.047
NUP37 (UniProt Q8NFH4)	inactive: 0.023
OPTN (UniProt Q96CV9)	inactive: 0
NUP43 (UniProt Q8NFH3)	inactive: 0.076
OTUD7B (UniProt Q6GQQ9)	inactive: 0.024
NSUN6 (UniProt Q8TEA1)	inactive: 0.025
NUP153 (UniProt P49790)	inactive: 0.06
P4HA1 (UniProt P13674)	inactive: -0.135
OTUB1 (UniProt Q96FW1)	inactive: 0.024
P3H1 (UniProt Q32P28)	inactive: -0.106

Target	log2 fold change
NUP88 (UniProt Q99567)	inactive: -0.088
OSTF1 (UniProt Q92882)	inactive: -0.005
NUDT4 (UniProt Q9NZJ9)	inactive: -0.012
NUSAP1 (UniProt Q9BXS6)	inactive: 0.121
OIP5 (UniProt O43482)	inactive: -0.005
OLA1 (UniProt Q9NTK5)	inactive: 0.021
NUB1 (UniProt Q9Y5A7)	inactive: -0.005
NUBP2 (UniProt Q9Y5Y2)	inactive: 0.015
OGFOD3 isoform 2 (UniProt Q6PK18)	inactive: -0.139
NUS1 (UniProt Q96E22)	inactive: 0.016
NUBPL (UniProt Q8TB37)	inactive: 0.044
NUP42 (UniProt O15504)	inactive: 0.149
OGDH (UniProt Q02218)	inactive: -0.089
P4HA1 isoform 2 (UniProt P13674)	inactive: -0.047
NT5DC2 isoform 2 (UniProt Q9H857)	inactive: 0.087
NUTF2 (UniProt P61970)	inactive: 0.034

Compound: CS(=O)(=O)CCNCc1ccc(-c2ccc3ncnc(Nc4ccc(OCc5cccc(F)c5)c(Cl)c4)c3c2)o1 [lapatinib]
Test: as above
Summary of the method: as §1

Target	log2 fold change
NT5C2 (UniProt P49902)	inactive: -0.055
ORC4 (UniProt O43929)	inactive: -0.01
NUDT16L1 (UniProt Q9BRJ7)	inactive: -0.002
OS9 (UniProt Q13438)	inactive: 0.034
NUDT19 (UniProt A8MXV4)	inactive: -0.014
PABPC1 (UniProt P11940)	inactive: 0.014
NT5DC3 (UniProt Q86UY8)	inactive: 0.029
NUP37 (UniProt Q8NFH4)	inactive: -0.022
OPTN (UniProt Q96CV9)	inactive: 0.032
NUP43 (UniProt Q8NFH3)	inactive: 0.021
OTUD7B (UniProt Q6GQQ9)	inactive: 0.088
NSUN6 (UniProt Q8TEA1)	inactive: 0.003
NUP153 (UniProt P49790)	inactive: 0.008
P4HA1 (UniProt P13674)	inactive: 0.081
OTUB1 (UniProt Q96FW1)	inactive: 0.012
P3H1 (UniProt Q32P28)	inactive: 0.092

Target	log2 fold change
NUP88 (UniProt Q99567)	inactive: 0.06
OSTF1 (UniProt Q92882)	inactive: 0.113
NUDT4 (UniProt Q9NZJ9)	inactive: -0.015
NUSAP1 (UniProt Q9BXS6)	inactive: 0.159
OIP5 (UniProt O43482)	inactive: 0.002
OLA1 (UniProt Q9NTK5)	inactive: 0.008
NUB1 (UniProt Q9Y5A7)	inactive: 0.002
NUBP2 (UniProt Q9Y5Y2)	inactive: -0.053
OGFOD3 isoform 2 (UniProt Q6PK18)	inactive: 0
NUS1 (UniProt Q96E22)	inactive: -0.06
NUBPL (UniProt Q8TB37)	inactive: 0.11
NUP42 (UniProt O15504)	inactive: 0.127
OGDH (UniProt Q02218)	inactive: 0.132
P4HA1 isoform 2 (UniProt P13674)	inactive: 0.045
NT5DC2 isoform 2 (UniProt Q9H857)	inactive: 0.017
NUTF2 (UniProt P61970)	inactive: -0.006

Compound: CS(=O)(=O)N1CCN(Cc2cc3nc(-c4cccc5[nH]ncc45)nc(N4CCOCC4)c3s2)CC1 [pictilisib]
Test: as above
Summary of the method: as §1

Target	log2 fold change
NT5C2 (UniProt P49902)	inactive: 0.043
ORC4 (UniProt O43929)	inactive: 0.02
NUDT16L1 (UniProt Q9BRJ7)	inactive: 0.026
OS9 (UniProt Q13438)	inactive: 0.045
NUDT19 (UniProt A8MXV4)	inactive: 0.039
PABPC1 (UniProt P11940)	inactive: -0.109
NT5DC3 (UniProt Q86UY8)	inactive: -0.047
NUP37 (UniProt Q8NFH4)	inactive: 0.006
OPTN (UniProt Q96CV9)	inactive: -0.032
NUP43 (UniProt Q8NFH3)	inactive: 0.008
OTUD7B (UniProt Q6GQQ9)	inactive: -0.191
NSUN6 (UniProt Q8TEA1)	inactive: 0.046
NUP153 (UniProt P49790)	inactive: -0.075
P4HA1 (UniProt P13674)	inactive: -0.003
OTUB1 (UniProt Q96FW1)	inactive: -0.011
P3H1 (UniProt Q32P28)	inactive: -0.022

Target	log2 fold change
NUP88 (UniProt Q99567)	inactive: -0.032
OSTF1 (UniProt Q92882)	inactive: 0.113
NUDT4 (UniProt Q9NZJ9)	inactive: -0.002
NUSAP1 (UniProt Q9BXS6)	inactive: -0.117
OIP5 (UniProt O43482)	inactive: 0.116
OLA1 (UniProt Q9NTK5)	inactive: 0.03
NUB1 (UniProt Q9Y5A7)	inactive: 0.143
NUBP2 (UniProt Q9Y5Y2)	inactive: -0.071
OGFOD3 isoform 2 (UniProt Q6PK18)	inactive: 0.092
NUS1 (UniProt Q96E22)	inactive: 0.03
NUBPL (UniProt Q8TB37)	inactive: -0.078
NUP42 (UniProt O15504)	inactive: -0.064
OGDH (UniProt Q02218)	inactive: -0.016
P4HA1 isoform 2 (UniProt P13674)	inactive: 0.002
NT5DC2 isoform 2 (UniProt Q9H857)	inactive: 0.01
NUTF2 (UniProt P61970)	inactive: -0.031
